The values that follow come from paper PMC7819943, “Rice protein-binding microarrays: a tool to detect cis-acting elements near promoter regions in rice”.

Chains of the proteins cited; added tags and fusions are not shown.
UniProt Q0JBA9, entry or part of it: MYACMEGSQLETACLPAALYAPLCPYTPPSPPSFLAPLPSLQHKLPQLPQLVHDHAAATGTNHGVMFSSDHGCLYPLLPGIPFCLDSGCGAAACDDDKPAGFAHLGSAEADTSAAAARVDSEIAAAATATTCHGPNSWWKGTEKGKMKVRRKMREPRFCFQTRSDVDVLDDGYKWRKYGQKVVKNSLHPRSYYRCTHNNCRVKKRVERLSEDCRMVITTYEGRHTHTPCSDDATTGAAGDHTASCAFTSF

The other results are listed elsewhere or left out.

This experiment concerns the target OsWRKY34 (Oryza sativa, UniProt Q0JBA9 1-250). Put plainly: protein-binding microarray (RPBM); PBS, 2% BSA, 51.3 ng/ul salmon testes DNA, 50 uM zinc acetate, 200 nM TF, 25 C, 1 h; high values mean tight binding. Conditions: protein: recombinant; tags: N-terminal polyhistidine and DsRed monomer fusion (pET32a); label: CyDye5-dUTP incorporated in the synthesized complementary strand; 3' TTTTT single-stranded linker to array surface; dsDNA, one strand shown. In outline:
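Binding signal is reported as fluorescence intensity per feature (arbitrary units) from an Axon 4000B scanner. Incubation used 200 nM of each Ni–NTA-purified, N-terminally polyhistidine- and DsRed-fused transcription factor from E. coli BL21-CodonPlus on a double-stranded custom Agilent array for 1 h at 25 °C, with 50 µM zinc acetate in the buffer, followed by washing.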
Consider “ACTCACCTTATTAGTCATCTTCCTTAGCCTTAAGCGTAAACGGAGTCACCTAGTGCAG”, for which the binding signal was 10300 fluorescence intensity (a.u.). “CGCTTACAGTCCACTCTCCACTGCGCCCGCATGAGTCATGCGGAGTCACCTAGTGCAG”: the binding signal was 8880 fluorescence intensity (a.u.). For the sequence “TCTCCCATCCCATCCCATGCATCACTAGCGGATTTGTGGACGGAGTCACCTAGTGCAG”, the binding signal is 8940 fluorescence intensity (a.u.). The figure for “CCTTCACACCATATTGTTTCTTCACTTGGAGGGTTACCAACGGAGTCACCTAGTGCAG” is 15100 fluorescence intensity (a.u.); for “TCTGCACTGGCCACCACTTTCCTCTGATGCACATGCTGACCGGAGTCACCTAGTGCAG” it is 10400 fluorescence intensity (a.u.); for “GTTTGCGTTTGTGTTCGTTTGGTCGCCGGCGGAAGCGATGCGGAGTCACCTAGTGCAG” it is 8920 fluorescence intensity (a.u.).

Turning to “AACGTGACTGTCCCATTATCTTGTGTCCACTTTATTTATACGGAGTCACCTAGTGCAG”, the binding signal is 10400 fluorescence intensity (a.u.). Regarding “AATGCACTCATTTTCTTCCCTATGCCTCTTCTCAGGGAGTCGGAGTCACCTAGTGCAG”, the binding signal is 8030 fluorescence intensity (a.u.).

As to “GCTTCCGTACAACTGCTTCAACGTGTCCGTGTTACACAATCGGAGTCACCTAGTGCAG”, the binding signal was 8670 fluorescence intensity (a.u.). As for “AGACACCTTTGAAGCTGTCCTGTGTCGGCAGCGTTGCGTCCGGAGTCACCTAGTGCAG”, the binding signal is 8470 fluorescence intensity (a.u.). For “GCCATCTCCTTTCTCGCGCCGTCTCATCTCATCTTCTTCGCGGAGTCACCTAGTGCAG”, the binding signal was 10900 fluorescence intensity (a.u.). As to “CTCTTTTTCATATTGTTATCTTGGGATCTGATTTTTGTCCCGGAGTCACCTAGTGCAG”, the binding signal is 9170 fluorescence intensity (a.u.). With “TATGCCGCCTATCATCATCATTCCACTAGTAGCAAAACGGCGGAGTCACCTAGTGCAG”, the binding signal was 8200 fluorescence intensity (a.u.). With “GGTTCCTGCTGTATTTTTCTCTTGACTGTCTTCTCTCTCCCGGAGTCACCTAGTGCAG”, the binding signal is 14000 fluorescence intensity (a.u.). For “GTCGTGCCGGCGCGTGTTGCTTGCTATTGGGGTCTTACTTCGGAGTCACCTAGTGCAG”, the binding signal is 12000 fluorescence intensity (a.u.). The result for “GTATGCATTATTATGCTGATTAATTTGGCCTGGTTATTTGCGGAGTCACCTAGTGCAG” reads 8160 fluorescence intensity (a.u.).

For “AAAAATAAACTTGATTGTGATGTGGGCTGGGCCGGAAGTACGGAGTCACCTAGTGCAG”, the binding signal is 8270 fluorescence intensity (a.u.). As for “TAGCTTCTATAACTGCAAGATTTTCAATCTGTCACCTGATCGGAGTCACCTAGTGCAG”, the binding signal is 11500 fluorescence intensity (a.u.).

Take “GCGGCCTCCAATTCGAACGCCCCAGTTGCTCGCGCCGCCGCGGAGTCACCTAGTGCAG”: the binding signal was 10000 fluorescence intensity (a.u.).

Take “CAGCCATGTCAGCCAGGTTAGTCAATCCACTGTCAATTTCCGGAGTCACCTAGTGCAG”: the binding signal was 8560 fluorescence intensity (a.u.). Consider “TGTTCGCGTCCATCGTTGACTTTTTCAACGCCATGCACGCCGGAGTCACCTAGTGCAG”, for which the binding signal was 30900 fluorescence intensity (a.u.).

With “ATCCAAGCCGTCCATCTTCACCCGTCACTGTCACTCGCCACGGAGTCACCTAGTGCAG”, the binding signal was 16900 fluorescence intensity (a.u.). Regarding “CTTTAGGTGTTGCGGTCATACTTGTCAACTTGTCACAAAACGGAGTCACCTAGTGCAG”, the binding signal was 8690 fluorescence intensity (a.u.).
